No constants are given. Whether binding was seen depends on the method and setting. In cells and extracts the contact can be indirect. Some entries that bind do so weakly or less than the wild type. For part of these data: Where a sequence is shown, tags or fusion partners need not be part of it.
How the values were obtained:
[1] = molecular target: His-tagged SP1 expressed from pcDNA3.1-SP1 (human), P08047; experiment: co-IP; details: remark: other sources report otherwise
[2] = molecular target: endogenous SP1 (human (endogenous in HEK293 and HCT 116)), P08047; experiment: co-IP; details: remark: other sources report otherwise

| Binder | binding [1] | binding [2] |
| --- | --- | --- |
| Flag-tagged p68 (DDX5) expressed from pIRES-p68, P17844 1-614 (protein) MSGYSSDRDRGRDRGFGAPRFGGSRAGPLSGKKFGNPGEKLVKKKWNLDELPKFEKNFYQEHPDLARRTAQEVETYRRSKEITVRGHNCPKPVLNFYEANFPANVMDVIARQNFTEPTAIQAQGWPVALSGLDMVGVAQTGSGKTLSYLLPAIVHINHQPFLERGDGPICLVLAPTRELAQQVQQVAAEYCRACRLKSTCIYGGAPKGPQIRDLERGVEICIATPGRLIDFLECGKTNLRRTTYLVLDEADRMLDMGFEPQIRKIVDQIRPDRQTLMWSATWPKEVRQLAEDFLKDYIHINIGALELSANHNILQIVDVCHDVEKDEKLIRLMEEIMSEKENKTIVFVETKRRCDELTRKMRRDGWPAMGIHGDKSQQERDWVLNEFKHGKAPILIATDVASRGLDVEDVKFVINYDYPNSSEDYIHRIGRTARSTKTGTAYTFFTPNNIKQVSDLISVLREANQAINPKLLQLVEDRGSGRSRGRGGMKDDRRDRYSAGKRGGFNTFRDRENYDRGYSSLLKRDFGAKTQNGVYSAANYTNGSFGSNFVSAGIQTSFRTGNPTGTYQNGYDSTQQYGSNVPNMHNGMNQQAYAYPATAAAPMIGYPMPTGYSQ | binds |  |
| endogenous p68 (DDX5), P17844 1-614 (protein) MSGYSSDRDRGRDRGFGAPRFGGSRAGPLSGKKFGNPGEKLVKKKWNLDELPKFEKNFYQEHPDLARRTAQEVETYRRSKEITVRGHNCPKPVLNFYEANFPANVMDVIARQNFTEPTAIQAQGWPVALSGLDMVGVAQTGSGKTLSYLLPAIVHINHQPFLERGDGPICLVLAPTRELAQQVQQVAAEYCRACRLKSTCIYGGAPKGPQIRDLERGVEICIATPGRLIDFLECGKTNLRRTTYLVLDEADRMLDMGFEPQIRKIVDQIRPDRQTLMWSATWPKEVRQLAEDFLKDYIHINIGALELSANHNILQIVDVCHDVEKDEKLIRLMEEIMSEKENKTIVFVETKRRCDELTRKMRRDGWPAMGIHGDKSQQERDWVLNEFKHGKAPILIATDVASRGLDVEDVKFVINYDYPNSSEDYIHRIGRTARSTKTGTAYTFFTPNNIKQVSDLISVLREANQAINPKLLQLVEDRGSGRSRGRGGMKDDRRDRYSAGKRGGFNTFRDRENYDRGYSSLLKRDFGAKTQNGVYSAANYTNGSFGSNFVSAGIQTSFRTGNPTGTYQNGYDSTQQYGSNVPNMHNGMNQQAYAYPATAAAPMIGYPMPTGYSQ | binds | binds |
